{"source": "paper PMC5663708", "about": "“Novel Benzylidene Thiazolidinedione Derivatives as Partial PPARγ Agonists and their Antidiabetic Effects on Type 2 Diabetes” (Scientific Reports, 2017)"}
{"test_system": "NIH/3T3 mouse embryonic fibroblast cells", "experiment": "XTT cytotoxicity assay on NIH/3T3 cells", "conditions": "NIH/3T3 IC50 over PPARγ EC50; values >1000 μM accepted as 1000", "method": "XTT is reduced to soluble formazan by this enzyme and formazan is quantified and directly proportional to the number of viable cells. […] NIH/3T3 cells were seeded at 1 × 10^4 cells into each well of 96-well plates. […] The XTT assay (Xenometrix, Allschwil, Switzerland) was performed according to the manufacturer’s instructions, after 24 h incubation with the compounds. The absorbance was determined after 2 h incubation at 480 nm with a reference wavelength of 680 nm using a microplate reader (BioTek, USA). […] The stock solutions of the compounds were prepared in DMSO and further dilutions were made with fresh culture medium. The final DMSO concentration was under 0.1%. Rosiglitazone and Pioglitazone were used as positive controls. All data were obtained from 3 independent experiments in quadruplicates.", "units": {"IC50/EC50": "µM"}}
{"smiles": "CCCCNC(=O)CN1C(=O)S/C(=C\\c2ccccc2)C1=O", "note": "[1a]", "IC50/EC50": 142.85}
{"smiles": "CCN(CC)C(=O)CN1C(=O)S/C(=C\\c2ccccc2)C1=O", "note": "[1i]", "IC50/EC50": 105.16}
{"smiles": "CCCCNC(=O)CN1C(=O)S/C(=C\\c2ccc(Cl)cc2)C1=O", "note": "[3a]", "IC50/EC50": 163.73}
